Measured values as given in patent US12486259B2, “FXR agonist having pyrazine structure, and preparation method and use” (JIANGSU TASLY DIYI PHARMACEUTICAL CO., LTD., priority 2020, dated 2025).
At least one structure is not confirmed: it was looked up by name or label, or the drawing left a doubt.

System: C57/BL6 mice fed MCD diet
Test: Pharmacodynamic test in methionine-choline deficient diet (MCD) model of non-alcoholic fatty liver disease
Assay type: in vivo
Method: Animal strain: C57/BL6, Animal Grade: SPF Grade, Gender: male, Animal Age: 8 weeks old, Animals Received Date: 2018 Sep. 28, Animal Source: Shanghai Lingchang Biotechnology Co. Ltd., Animal Certificate No: SCXK (Shanghai)2013-0018 2013001836799, Mouse feeding Environment: temperature 20-26° C., humidity 40-70%, 12 hour day and night cycle.
5% Solutol HS15/Normal saline: after Solutol HS15 (polyethylene glycol 15 hydroxystearate solubilizer) is dissolved in a water bath at 37° C., 5 ml of it is dissolved in 100 ml of normal saline, thoroughly stirred for later use.
Obeticholic acid/5% Solutol HS15/Normal saline: 0.15 ml Solutol HS15 is added to accurately weighed 12 mg obeticholic acid to fully dissolve it, and 2.85 ml normal saline is added, vigorously mixed and dissolved by the ultrasound. • TM-01 Group/5% Solutol HS15/Normal saline: 2.5 ml of 6 mg/ml TM-01 suspension is taken, 2.5 ml of 5% Solutol HS15/normal saline is added, and the mixture is mixed well. • TM-02 Group/5% Solutol HS15/Normal saline: 2.5 ml of 6 mg/ml TM-02 suspension is taken, 2.5 ml of 5% Solutol HS15/normal saline is added, and the mixture is mixed well. • TM-06 Group/5% Solutol HS15/Normal saline: 2.5 ml of 6 mg/ml TM-06 suspension is taken, 2.5 ml of 5% Solutol HS15/Normal saline is added, and the mixture is mixed well. • TM-09 Group/5% Solutol HS15/Normal saline: 2.5 ml of 6 mg/ml TM-09 suspension is taken, 2.5 ml of 5% Solutol HS15/Normal saline is added, and the mixture is mixed well.
Menstruum and test compounds are administered by gavage at a dose volume of 10 ml/kg;
After reaching the animal house, 70 8-week-old C57/BL6 mice are fed adaptively and randomly divided into 7 groups according to body weight after the average body weight reaches 23 g. They are given the model feed. The first group receives the control diet MCS and the remaining groups receive the MCD diet, while each group of mice receives compound treatment as follows: • Group 1. Control Group: MCS, menstruum, administered once daily by gavage; • Group 2. Model Group: MCD, menstruum, administered once daily by gavage; • Group 3. Obeticholic acid group: MCD, 40 mpk obeticholic acid, administered once daily by gavage; • Group 4. TM-01 Group: MCD, 30 mpk TM-01, administered once daily by gavage; • Group 5. TM-02 Group: MCD, 30 mpk TM-02, administered once daily by gavage; • Group 6. TM-06 Group: MCD, 30 mpk TM-06, administered once daily by gavage; • Group 7. TM-09 Group: MCD, 30 mpk TM-09, administered once daily by gavage; 2.4 Experimental Methods
Body weight and food intake are measured weekly during the experiment. […]
AST and ALT after administration for three and four weeks are determined according to the instructions of kit. […]

[1] = after 4 weeks of MCD and compounds treatment

## CC[C@H]1[C@@H](O)[C@@H]2[C@H](CC[C@]3(C)[C@@H]([C@H](C)CCC(=O)O)CC[C@@H]23)[C@@]2(C)CC[C@@H](O)C[C@@H]12 [obeticholic acid, reference compound]
[1]
  blood lipid levels (in words): reduces cholesterol levels in the blood
  liver triglyceride and cholesterol content (in words): decreased slightly
After 4 weeks, versus model group
  pathological score / condition of liver (in words): increased
Three weeks after MCD and compounds treatment
  ALT and AST compared to the model group (in words): higher levels of AST and ALT than the model group
